In patent US20050025821A1, “Lipid-comprising drug delivery complexes and methods for their production” (priority 2001, published 2005):
At least one peptide structure holds a part that was inferred or is arguable (an end, a ring closure or a residue). No end group written: not given here.

Test system: HepG2 cells
Assay: In vitro transfection (luciferase expression)
Assay type: cell-based
Details: DC-chol:DOPE LPDs, dose titration (FIG. 11)
Experimental: 16-24 hr prior to transfection, 5×10^4 cells (MDA-MB-231, LL/2 or HepG-2 (ATCC, Manassas, Va.)) in 500 μl/well of appropriate media (ATCC catalog describes appropriate media for each cell type) containing 10% FBS were seeded in a 48 well plate (Costar, Coming, N.Y.) and incubated overnight at 37° C. in 5% or 10% CO2. The following day, the media was removed and replaced with 500 μl of fresh serum-free media. […] After transfection, luciferase activity was assayed as described (Promega Luciferase Assay Kit, Cat. No. E1501, Madison, Wis.). Briefly, the cell culture media was removed and replaced by fresh media containing 10% FBS, and the cells were incubated at 37° C. in 5% or 10% CO2 for a further 48 h. Each well was washed with 1 ml PBS 0.095 M pH7.4 (Biowhittaker, Walkersville, Md.) and suspended in 200 μl of 1× luciferase reporter buffer (RLB) (Promega, Madison, Wis.). The cells were then subject to 3 cycles of freeze/thaw at −70° C./37° C., respectively. […] 20 μl of the supernatant was assayed for luciferase activity by addition of 100 μl of luciferase substrate (Promega, Madison, Wis.), followed by a 10 sec incubation time at room temperature before luminescence relative units were measured using a Berthold (Aliquippa, Pa. autolumat B953 luminometer. The total protein concentration per sample was determined using a commercial kit of Coomassie plus dye (Pierce, Rockford, Ill.). […]

## H-KKKAAAVLLPVLLAAP [ZElan094]
  MTLP peptide concentration giving optimal in vitro cell transfection: 10 µM
